Results published in PubChem BioAssay AID624297 (National Center for Advancing Translational Sciences (NCATS), 2012).
In all, about 340,000 compounds went through this assay and about 6,200 (1.8%) were called active. The shares of active, inactive and inconclusive entries below differ from those in the screen. Calls come from the whole dose curve; as a rule, active = well fitted activation curve with a large enough effect; inconclusive = small, poorly fitted or top-dose-only effect; inactive = no such curve, though single readings can be large or run the other way. A potency beside an inconclusive call is a rough fit, not a confirmed value.

assay: A quantitative high throughput screen for small molecules that induce DNA re-replication in SW480 colon adenocarcinoma cells.; note: nearly all actives have a fitted effect of over 55% in size; conditions: Hoechst DNA content imaging, 48 h; series mostly up to 46.1 µM
How it was run: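 DNA re-replication was detected as more nuclei of elevated Hoechst intensity after 48 hr exposure to compound (23 nL pinned per well of 250 cells).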
Potency is the fitted concentration of half-maximal effect.

SMILES	Potency
Cc1cc(C)c(S(=O)(=O)N2CCc3ccccc32)c(C)c1	inconclusive: 29.1 µM [activator, single point]
O=C(CN1CCOCC1)Nc1ccc(OCc2ccccc2)cc1	inactive
O=C1C(Cl)=C(NCCN2CCOCC2)C(=O)c2ccccc21	inconclusive: 29.1 µM [activator, single point]
CSc1nc2cc(S(=O)(=O)N3CCCCC3)ccc2s1	inactive
Cc1ccccc1NC(=O)COC(=O)[C@@H]1CCCN1C(=O)c1cccs1	inactive
Cc1ccccc1NC(=O)OCc1cccnc1Sc1ccc(Cl)cc1	inactive
C/C(=N\NC(=O)c1ccc(Cl)cc1)c1ccccn1	inconclusive: 0.82 µM [activator, partial curve, poor fit]
CCN(c1cccc(C)c1)S(=O)(=O)c1nnc(NC(=O)c2ccco2)s1	inconclusive: 18.4 µM [activator, single point]
O=S(Cc1ccc(Cl)cc1)c1ccccc1 (stereo not given)	inconclusive: 25.9 µM [activator, partial curve, poor fit]
CCCOc1ccc(-c2nc3c(c(=O)[nH]c(=O)n3Cc3ccccc3)n2CCO)cc1OCC	inconclusive: 5.8 µM [activator, single point]
COc1ccc(Cn2c(C(C)C)nc3sc4ccccc4c(=O)c3c2=O)cc1	inactive
COc1ccc(/C=C2\N=C(C)OC2=O)cc1[N+](=O)[O-]	inconclusive: 10.3 µM [activator, partial curve, poor fit]
COc1cccc(OC)c1C(=O)Nc1cccc2c1CCCC2	inconclusive: 2.31 µM [activator, single point]
Cc1cc(C)c2c(N)c(C(=O)c3ccccc3)sc2n1	inactive
COC(=O)c1ccc(-n2c(CCC(=O)O)ccc2-c2ccccc2)cc1	inconclusive: 20.6 µM [activator, single point]
Cc1ccc(/C=N/NC(=O)c2cc3ccccc3cc2O)o1	inconclusive: 29.1 µM [activator, single point]
O=C(CCCOc1ccc(Cl)cc1Cl)N/N=C/c1ccccc1O	inconclusive: 18.4 µM [activator, single point]
Cc1cccc(OCCOCCSc2ncccn2)c1	inactive
CCN(CC(=O)Nc1ccccc1C(F)(F)F)C(=O)c1ccc2c(c1)NC(=O)CS2	inconclusive: 29.1 µM [activator, single point]
CC(OC(=O)c1ccc(NS(=O)(=O)c2ccc3[nH]c(=O)[nH]c3c2)cc1)C(=O)Nc1cccc(Cl)c1Cl (stereo not given)	inconclusive: 23.1 µM [activator, partial curve, poor fit]

Reprinted from the results shown for reference:
SMILES	Potency
Cc1ccc(/C=N/NC(=O)c2cc3ccccc3cc2O)o1	inconclusive: 29.1 µM [activator, single point]
O=C(CCCOc1ccc(Cl)cc1Cl)N/N=C/c1ccccc1O	inconclusive: 18.4 µM [activator, single point]
Cc1cccc(OCCOCCSc2ncccn2)c1	inactive
CCN(CC(=O)Nc1ccccc1C(F)(F)F)C(=O)c1ccc2c(c1)NC(=O)CS2	inconclusive: 29.1 µM [activator, single point]
